Reference: paper PMC3533909
These are yes or no findings as the source states them, for the method shown. Binding seen in cells or lysates may run through a third protein. Some binding calls cover weakened binding; strength is not graded here.

Sequences of proteins named here, by UniProt entry; tags and fusion partners are left off. A change or cut given only in a name is not applied to a line headed by its entry. A line that says so, or that is headed by a name, gives the form on record, which may keep a tag or linker. Residues count along the entry.
UniProt P51617: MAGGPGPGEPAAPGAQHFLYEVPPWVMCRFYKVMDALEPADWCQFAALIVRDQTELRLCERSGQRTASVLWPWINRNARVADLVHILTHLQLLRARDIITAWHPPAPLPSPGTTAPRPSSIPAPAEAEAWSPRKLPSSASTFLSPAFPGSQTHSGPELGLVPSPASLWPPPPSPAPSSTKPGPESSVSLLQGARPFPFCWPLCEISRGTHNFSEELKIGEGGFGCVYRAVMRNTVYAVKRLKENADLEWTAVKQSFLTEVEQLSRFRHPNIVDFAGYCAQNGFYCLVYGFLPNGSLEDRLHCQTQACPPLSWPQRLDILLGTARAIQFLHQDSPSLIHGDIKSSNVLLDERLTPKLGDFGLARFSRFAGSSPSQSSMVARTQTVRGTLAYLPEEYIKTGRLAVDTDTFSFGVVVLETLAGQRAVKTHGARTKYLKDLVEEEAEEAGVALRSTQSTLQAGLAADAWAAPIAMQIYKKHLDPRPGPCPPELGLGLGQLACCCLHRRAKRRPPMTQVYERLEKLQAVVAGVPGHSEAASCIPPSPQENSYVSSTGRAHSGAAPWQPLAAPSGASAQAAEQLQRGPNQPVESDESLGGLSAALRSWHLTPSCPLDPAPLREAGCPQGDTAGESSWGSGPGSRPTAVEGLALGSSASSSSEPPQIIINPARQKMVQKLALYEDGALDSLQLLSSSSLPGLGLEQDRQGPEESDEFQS
endogenous PINK1 (HEK293) (Q9BXM7, residues 78-581): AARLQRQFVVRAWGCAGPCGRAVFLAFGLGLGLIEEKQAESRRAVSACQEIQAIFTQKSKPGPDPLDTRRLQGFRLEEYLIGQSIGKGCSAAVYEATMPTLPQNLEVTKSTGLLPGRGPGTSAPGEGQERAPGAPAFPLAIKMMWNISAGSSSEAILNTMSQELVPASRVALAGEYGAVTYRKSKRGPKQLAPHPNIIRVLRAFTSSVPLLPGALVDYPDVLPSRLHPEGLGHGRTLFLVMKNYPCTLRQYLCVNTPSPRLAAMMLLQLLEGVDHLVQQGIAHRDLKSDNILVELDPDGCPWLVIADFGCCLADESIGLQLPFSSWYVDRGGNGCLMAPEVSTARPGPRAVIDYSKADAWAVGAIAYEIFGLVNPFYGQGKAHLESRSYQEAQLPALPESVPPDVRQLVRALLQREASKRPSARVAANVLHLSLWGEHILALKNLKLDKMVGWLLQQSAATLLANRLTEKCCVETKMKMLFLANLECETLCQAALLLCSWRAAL
Myc-tagged kinase-deficient hPINK1 mutant (pBOS-3X-myc-hPINK1-KD) (Q9BXM7, form named): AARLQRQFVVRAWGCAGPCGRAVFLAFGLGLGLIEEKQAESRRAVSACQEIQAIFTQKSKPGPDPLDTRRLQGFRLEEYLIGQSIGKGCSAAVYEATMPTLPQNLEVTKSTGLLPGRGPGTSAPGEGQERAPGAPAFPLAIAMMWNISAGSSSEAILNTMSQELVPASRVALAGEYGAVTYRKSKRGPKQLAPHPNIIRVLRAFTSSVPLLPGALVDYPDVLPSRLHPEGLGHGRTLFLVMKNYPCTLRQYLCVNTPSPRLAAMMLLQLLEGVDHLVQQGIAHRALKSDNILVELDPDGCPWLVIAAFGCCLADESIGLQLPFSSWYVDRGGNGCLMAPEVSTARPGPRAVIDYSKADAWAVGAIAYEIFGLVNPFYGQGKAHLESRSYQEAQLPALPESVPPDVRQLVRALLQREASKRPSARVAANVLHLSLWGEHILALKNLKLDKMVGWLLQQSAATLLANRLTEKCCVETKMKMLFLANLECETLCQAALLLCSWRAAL
UniProt Q62406: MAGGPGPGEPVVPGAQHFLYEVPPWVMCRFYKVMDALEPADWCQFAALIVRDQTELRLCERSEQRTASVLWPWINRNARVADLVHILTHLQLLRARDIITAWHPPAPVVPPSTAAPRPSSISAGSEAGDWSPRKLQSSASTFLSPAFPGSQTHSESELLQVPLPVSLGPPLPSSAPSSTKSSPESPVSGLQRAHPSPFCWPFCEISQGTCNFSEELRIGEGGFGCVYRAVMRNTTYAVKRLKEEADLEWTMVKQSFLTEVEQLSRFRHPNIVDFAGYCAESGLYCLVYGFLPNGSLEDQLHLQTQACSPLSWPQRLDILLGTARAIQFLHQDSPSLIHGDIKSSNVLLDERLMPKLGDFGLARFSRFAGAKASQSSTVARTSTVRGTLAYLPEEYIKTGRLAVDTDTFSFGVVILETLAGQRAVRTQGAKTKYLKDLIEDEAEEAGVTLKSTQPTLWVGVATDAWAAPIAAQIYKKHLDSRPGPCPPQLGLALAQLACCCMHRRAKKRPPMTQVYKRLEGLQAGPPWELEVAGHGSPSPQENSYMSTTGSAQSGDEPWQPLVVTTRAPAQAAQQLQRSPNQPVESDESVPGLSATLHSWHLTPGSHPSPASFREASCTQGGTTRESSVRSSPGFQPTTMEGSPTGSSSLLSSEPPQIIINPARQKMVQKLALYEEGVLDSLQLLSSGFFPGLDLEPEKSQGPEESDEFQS

Experiments:
[1] = target: Flag-tagged IL-1 receptor-associated kinase 1 (IRAK1) (UniProt P51617); experiment: co-IP; HEK293 cells transfected for 48 hours, normal growth conditions; lysates in 1% Nonidet P40 lysis buffer (50 mM Tris pH 7.5, 150 mM NaCl), antibody overnight at 4°C, protein A-sepharose
[2] = target: T1, endogenous TRAF6 (mouse embryonic fibroblasts) (mouse (endogenous in MEFs)) (UniProt P70196); experiment: co-IP; endogenous proteins, lysates of PINK1-/- and PINK1+/+ mouse embryonic fibroblasts, 50 ng/ml IL-1β for the indicated times, with or without 50 μM MG132 for 30 minutes beforehand
T1 sequence: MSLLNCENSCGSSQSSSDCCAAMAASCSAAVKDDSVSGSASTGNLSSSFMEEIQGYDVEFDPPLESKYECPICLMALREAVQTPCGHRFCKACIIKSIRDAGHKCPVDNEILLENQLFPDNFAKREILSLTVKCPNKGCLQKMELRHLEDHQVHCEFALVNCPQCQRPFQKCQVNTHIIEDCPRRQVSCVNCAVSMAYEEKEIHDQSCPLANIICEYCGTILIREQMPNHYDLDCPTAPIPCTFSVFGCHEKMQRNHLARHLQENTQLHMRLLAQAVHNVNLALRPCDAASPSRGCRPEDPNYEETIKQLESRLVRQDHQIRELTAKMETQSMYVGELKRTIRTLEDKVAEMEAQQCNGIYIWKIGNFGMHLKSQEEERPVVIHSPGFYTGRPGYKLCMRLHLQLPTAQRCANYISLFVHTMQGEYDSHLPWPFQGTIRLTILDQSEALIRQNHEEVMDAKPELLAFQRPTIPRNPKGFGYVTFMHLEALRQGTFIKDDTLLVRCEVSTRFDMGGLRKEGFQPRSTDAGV

[3] = target: endogenous IRAK1 (HEK293) (human (endogenous in HEK293)) (UniProt P51617); experiment: co-IP; endogenous proteins, HEK293 cell lysates; preimmune IgG as control; 1% Nonidet P40 lysis buffer, 4°C

binding [1] | Substance | other results
binds | Myc-tagged kinase-deficient hPINK1 mutant (pBOS-3X-myc-hPINK1-KD) (from UniProt Q9BXM7 78-581) | 
binds | Myc-tagged wild-type hPINK1 (pBOS-3X-myc-hPINK1-WT) (from UniProt Q9BXM7 78-581) | 
 | endogenous IRAK1 (mouse embryonic fibroblasts) (from UniProt Q62406 1-710) | binding [2]: binds
 | endogenous PINK1 (HEK293) (from UniProt Q9BXM7 78-581) | binding [3]: binds
